Patent publication US11660280B2, “Treatment of drug resistant gliomas” (OKLAHOMA MEDICAL RESEARCH FOUNDATION, priority 2017, dated 2023)
For at least one compound, name, drawing or mass did not settle the structure.

How the values were obtained:
G55 GBM cells = experiment: Cell migration in laminin-coated PDMS micro-channels; format: cell-based, human; details: at 28 h and 46 h following treatment
Protocol: Cell migration. For the migration study, 6-well chambers with PDMS (polydimethylsiloxane) micro-channels inside were coated with 10 μg/ml of laminin (Sigma-Aldrich) in each well. G55 cells were seeded (50×10^3) in 100 μl and supplemented with 2 ml of media in each well. The chambers were incubated in the incubator at 37° C. with 5% CO2 until scheduled time points. Some chambers were treated with OKN-007, TMZ or OKN-007 combined with TMZ (1 μL/mL media for both OKN-007 and TMZ, as well as when the two are combined), and for each treatment group one well was left untreated as a control. Images of the cells inside the microchannels were taken using an Olympus CK40 inverted microscope (Japan) under 10× and the distances of the same cells traveled were measured at 22 h, 28 h, and 46 h post seeding, cell migration speed (μm/h) was calculated. Each treatment was repeated at least 3 times and data shown as mean ±S.D.

[1] = test system: LBP (lipopolysaccharide binding protein); experiment: LBP ELISA in tumor tissue and blood serum of G55 glioma-bearing mice; format: in vivo, mouse
Protocol: Lipopolysaccharide binding protein (LBP) ELISA assay. The LBP ELISA kit (Antibodies-Online.com; ABIN370808) is specific for mouse LBP levels in serum, plasma and tissue samples. This is a colorimetric assay that was read on a micro plate reader for measurement of absorbance at 450/620 nm. LBP concentrations were calculated from a standard curve and multiplied by appropriate dilution factors.

human G55 xenograft = experiment: Orthotopic G55 human GBM xenograft in nude mice (survival, MRI tumor volume, perfusion rCBF); format: in vivo, mouse

Cn1nnc2c(C(N)=O)ncn2c1=O [TMZ, Temozolomide, reference compound]
cell migration speed compared to untreated (UT) cells (G55 GBM cells): significantly decreased | LBP levels in tumor tissues compared to UT mice [1]: not found to be significantly different | tumor volumes compared to UT mice (human G55 xenograft; MRI at 19-22 days following tumor detection, G55 glioma-bearing mice): significantly decreased tumor volumes | tumor volumes compared to UT mice (human G55 xenograft; last MRI time-point for each treatment group): significantly smaller
